Results are given in words; binding and its absence hold for the method and conditions named. In cells and extracts the contact can be indirect. These calls come from enrichment with a bait or labelling near it, and not all partners need be listed. Where a sequence is shown, tags or fusion partners need not be part of it.
T1: Mrc1-YFP (S. cerevisiae) (UniProt P25588)
T1 sequence: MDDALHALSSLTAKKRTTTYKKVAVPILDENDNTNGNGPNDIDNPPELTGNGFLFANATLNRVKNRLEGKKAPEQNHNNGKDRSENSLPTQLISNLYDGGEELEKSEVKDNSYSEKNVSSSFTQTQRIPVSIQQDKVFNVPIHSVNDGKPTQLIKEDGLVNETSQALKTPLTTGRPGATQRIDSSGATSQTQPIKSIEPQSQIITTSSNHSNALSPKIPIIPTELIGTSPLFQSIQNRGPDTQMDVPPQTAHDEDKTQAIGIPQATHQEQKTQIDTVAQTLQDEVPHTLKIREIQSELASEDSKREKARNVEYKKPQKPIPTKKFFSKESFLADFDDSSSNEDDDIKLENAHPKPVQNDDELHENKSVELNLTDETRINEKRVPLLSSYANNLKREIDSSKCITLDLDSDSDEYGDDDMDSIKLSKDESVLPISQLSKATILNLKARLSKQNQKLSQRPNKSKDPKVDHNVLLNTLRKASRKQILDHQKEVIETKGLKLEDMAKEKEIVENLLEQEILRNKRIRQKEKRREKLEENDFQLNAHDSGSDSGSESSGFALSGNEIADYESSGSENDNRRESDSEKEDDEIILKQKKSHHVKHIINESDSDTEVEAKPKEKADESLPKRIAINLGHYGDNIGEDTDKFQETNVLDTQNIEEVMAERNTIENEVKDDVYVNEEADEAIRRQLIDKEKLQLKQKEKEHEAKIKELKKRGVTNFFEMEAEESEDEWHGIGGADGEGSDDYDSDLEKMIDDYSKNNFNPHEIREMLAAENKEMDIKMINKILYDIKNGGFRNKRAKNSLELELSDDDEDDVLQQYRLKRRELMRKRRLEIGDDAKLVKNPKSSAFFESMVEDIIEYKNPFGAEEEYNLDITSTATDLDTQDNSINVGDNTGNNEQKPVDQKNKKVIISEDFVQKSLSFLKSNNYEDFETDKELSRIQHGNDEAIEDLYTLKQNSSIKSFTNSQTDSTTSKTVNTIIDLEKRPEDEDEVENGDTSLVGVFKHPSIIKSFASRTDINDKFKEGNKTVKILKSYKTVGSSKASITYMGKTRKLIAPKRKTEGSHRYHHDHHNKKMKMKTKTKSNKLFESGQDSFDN

T2: Mrc1-YFP (S. cerevisiae), P25588
T2 chain: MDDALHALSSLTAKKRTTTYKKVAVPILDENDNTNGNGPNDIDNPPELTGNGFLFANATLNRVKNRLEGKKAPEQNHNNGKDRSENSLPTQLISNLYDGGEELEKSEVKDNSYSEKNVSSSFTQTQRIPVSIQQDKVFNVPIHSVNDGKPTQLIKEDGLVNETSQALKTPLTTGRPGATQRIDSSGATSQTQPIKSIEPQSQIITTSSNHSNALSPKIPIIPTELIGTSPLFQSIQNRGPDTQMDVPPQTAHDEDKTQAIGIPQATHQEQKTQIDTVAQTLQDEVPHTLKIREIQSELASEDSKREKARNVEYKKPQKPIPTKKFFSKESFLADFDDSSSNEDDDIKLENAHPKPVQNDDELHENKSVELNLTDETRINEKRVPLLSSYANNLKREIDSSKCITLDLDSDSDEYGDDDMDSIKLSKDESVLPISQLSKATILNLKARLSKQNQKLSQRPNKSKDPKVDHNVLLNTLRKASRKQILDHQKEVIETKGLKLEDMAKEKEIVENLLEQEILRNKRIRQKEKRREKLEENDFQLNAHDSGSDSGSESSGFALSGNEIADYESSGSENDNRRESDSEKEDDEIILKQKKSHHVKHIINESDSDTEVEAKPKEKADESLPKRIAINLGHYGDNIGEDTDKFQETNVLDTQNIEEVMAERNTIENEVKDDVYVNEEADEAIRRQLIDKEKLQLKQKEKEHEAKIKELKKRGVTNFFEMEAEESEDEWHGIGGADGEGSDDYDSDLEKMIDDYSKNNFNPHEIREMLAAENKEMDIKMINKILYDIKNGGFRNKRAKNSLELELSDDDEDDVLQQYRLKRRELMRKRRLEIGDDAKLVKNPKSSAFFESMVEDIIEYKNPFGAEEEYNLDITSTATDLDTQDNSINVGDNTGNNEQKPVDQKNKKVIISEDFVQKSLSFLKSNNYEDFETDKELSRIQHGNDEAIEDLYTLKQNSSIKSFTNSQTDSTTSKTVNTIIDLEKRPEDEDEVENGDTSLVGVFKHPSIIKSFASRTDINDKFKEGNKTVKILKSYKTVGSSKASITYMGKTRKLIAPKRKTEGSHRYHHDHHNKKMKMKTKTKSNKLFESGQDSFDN

B1: Pds5 (protein, UniProt Q04264 1-1277)
chain: MAKGAVTKLKFNSPIISTSDQLISTNELLDRLKALHEELASLDQDNTDLTGLDKYRDALVSRKLLKHKDVGIRAFTACCLSDILRLYAPDAPYTDAQLTDIFKLVLSQFEQLGDQENGYHIQQTYLITKLLEYRSIVLLADLPSSNNLLIELFHIFYDPNKSFPARLFNVIGGILGEVISEFDSVPLEVLRLIFNKFLTYNPNEIPEGLNVTSDCGYEVSLILCDTYSNRMSRHLTKYYSEIIHEATNDDNNSRLLTVVVKLHKLVLRLWETVPELINAVIGFIYHELSSENELFRKEATKLIGQILTSYSDLNFVSTHSDTFKAWISKIADISPDVRVEWTESIPQIIATREDISKELNQALAKTFIDSDPRVRRTSVMIFNKVPVTEIWKNITNKAIYTSLLHLAREKHKEVRELCINTMAKFYSNSLNEIERTYQNKEIWEIIDTIPSTLYNLYYINDLNINEQVDSVIFEYLLPFEPDNDKRVHRLLTVLSHFDKKAFTSFFAFNARQIKISFAISKYIDFSKFLNNQESMSSSQGPIVMNKYNQTLQWLASGLSDSTKAIDALETIKQFNDERIFYLLNACVTNDIPFLTFKNCYNELVSKLQTPGLFKKYNISTGASIMPRDIAKVIQILLFRASPIIYNVSNISVLLNLSNNSDAKQLDLKRRILDDISKVNPTLFKDQIRTLKTIIKDLDDPDAEKNDNLSLEEALKTLYKASKTLKDQVDFDDTFFFTKLYDFAVESKPEITKYATKLIALSPKAEETLKKIKIRILPLDLQKDKYFTSHIIVLMEIFKKFPHVLNDDSTDIISYLIKEVLLSNQVVGDSKKEIDWVEDSLLSDTKYSAIGNKVFTLKLFTNKLRSIAPDVPRDELAESFTEKTMKLFFYLIASGGELISEFNKEFYPTPSNYQTKLRCVAGIQVLKLARISNLNNFIKPSDIIKLINLVEDESLPVRKTFLEQLKDYVANELISIKFLPLVFFTAYEPDVELKTTTKIWINFTFGLKSFKKGTIFERALPRLIHAIAHHPDIVGGLDSEGDAYLNALTTAIDYLLFYFDSIAAQENFSLLYYLSERVKNYQDKLVEDEIDEEEGPQKEEAPKKHRPYGQKMYIIGELSQMILLNLKEKKNWQHSAYPGKLNLPSDLFKPFATVQEAQLSFKTYIPESLTEKIQNNIKAKIGRILHTSQTQRQRLQKRLLAHENNESQKKKKKVHHARSQADDEEGDGDRESDSDDDSYSPSNKNETKKGHENIVMKKLRVRKEVDYKDDEDDDIEMT
B2: Hsp26 (protein, UniProt P15992 1-214)
chain: MSFNSPFFDFFDNINNEVDAFNRLLGEGGLRGYAPRRQLANTPAKDSTGKEVARPNNYAGALYDPRDETLDDWFDNDLSLFPSGFGFPRSVAVPVDILDHDNNYELKVVVPGVKSKKDIDIEYHQNKNQILVSGEIPSTLNEESKDKVKVKESSSGKFKRVITLPDYPGVDADNIKADYANGVLTLTVPKLKPQKDGKNHVKKIEVSSQESWGN
B3: Mcm5 (protein, UniProt P29496 1-775)
chain: MSFDRPEIYSAPVLQGESPNDDDNTEIIKSFKNFILEFRLDSQFIYRDQLRNNILVKNYSLTVNMEHLIGYNEDIYKKLSDEPSDIIPLFETAITQVAKRISILSRAQSANNNDKDPENTSMDTDSLLLNSLPTFQLILNSNANQIPLRDLDSEHVSKIVRLSGIIISTSVLSSRATYLSIMCRNCRHTTSITINNFNSITGNTVSLPRSCLSTIESESSMANESNIGDESTKKNCGPDPYIIIHESSKFIDQQFLKLQEIPELVPVGEMPRNLTMTCDRYLTNKVIPGTRVTIVGIYSIYNSKNGAGSGRSGGGNGGSGVAIRTPYIKILGIQSDVETSSIWNSVTMFTEEEEEEFLQLSRNPKLYEILTNSIAPSIFGNEDIKKAIVCLLMGGSKKILPDGMRLRGDINVLLLGDPGTAKSQLLKFVEKVSPIAVYTSGKGSSAAGLTASVQRDPMTREFYLEGGAMVLADGGVVCIDEFDKMRDEDRVAIHEAMEQQTISIAKAGITTVLNSRTSVLAAANPIYGRYDDLKSPGDNIDFQTTILSRFDMIFIVKDDHNEERDISIANHVINIHTGNANAMQNQQEENGSEISIEKMKRYITYCRLKCAPRLSPQAAEKLSSNFVTIRKQLLINELESTERSSIPITIRQLEAIIRITESLAKLELSPIAQERHVDEAIRLFQASTMDAASQDPIGGLNQASGTSLSEIRRFEQELKRRLPIGWSTSYQTLRREFVDTHRFSQLALDKALYALEKHETIQLRHQGQNIYRSGV
B4: Sis1 (protein, UniProt P25294 1-352)
chain: MVKETKLYDLLGVSPSANEQELKKGYRKAALKYHPDKPTGDTEKFKEISEAFEILNDPQKREIYDQYGLEAARSGGPSFGPGGPGGAGGAGGFPGGAGGFSGGHAFSNEDAFNIFSQFFGGSSPFGGADDSGFSFSSYPSGGGAGMGGMPGGMGGMHGGMGGMPGGFRSASSSPTYPEEETVQVNLPVSLEDLFVGKKKSFKIGRKGPHGASEKTQIDIQLKPGWKAGTKITYKNQGDYNPQTGRRKTLQFVIQEKSHPNFKRDGDDLIYTLPLSFKESLLGFSKTIQTIDGRTLPLSRVQPVQPSQTSTYPGQGMPTPKNPSQRGNLIVKYKVDYPISLNDAQKRAIDENF
B5: Mcm7 (protein, UniProt P38132 1-845)
chain: MSAALPSIQLPVDYNNLFNEITDFLVTFKQDTLSSDATRNENEDENLDAENIEQHLLEKGPKYMAMLQKVANRELNSVIIDLDDILQYQNEKFLQGTQADDLVSAIQQNANHFTELFCRAIDNNMPLPTKEIDYKDDVLDVILNQRRLRNERMLSDRTNEIRSENLMDTTMDPPSSMNDALREVVEDETELFPPNLTRRYFLYFKPLSQNCARRYRKKAISSKPLSVRQIKGDFLGQLITVRGIITRVSDVKPAVEVIAYTCDQCGYEVFQEVNSRTFTPLSECTSEECSQNQTKGQLFMSTRASKFSAFQECKIQELSQQVPVGHIPRSLNIHVNGTLVRSLSPGDIVDVTGIFLPAPYTGFKALKAGLLTETYLEAQFVRQHKKKFASFSLTSDVEERVMELITSGDVYNRLAKSIAPEIYGNLDVKKALLLLLVGGVDKRVGDGMKIRGDINVCLMGDPGVAKSQLLKAICKISPRGVYTTGKGSSGVGLTAAVMKDPVTDEMILEGGALVLADNGICCIDEFDKMDESDRTAIHEVMEQQTISISKAGINTTLNARTSILAAANPLYGRYNPRLSPLDNINLPAALLSRFDILFLMLDIPSRDDDEKLAEHVTYVHMHNKQPDLDFTPVEPSKMREYIAYAKTKRPVMSEAVNDYVVQAYIRLRQDSKREMDSKFSFGQATPRTLLGIIRLSQALAKLRLADMVDIDDVEEALRLVRVSKESLYQETNKSKEDESPTTKIFTIIKKMLQETGKNTLSYENIVKTVRLRGFTMLQLSNCIQEYSYLNVWHLINEGNTLKFVDDGTMDTDQEDSLVSTPKLAPQTTASANVSAQDSDIDLQDA
B6: Sld5 (protein, UniProt Q03406 1-294)
chain: MDINIDDILAELDKETTAVDSTKITQGSSSTTHRDANTIVGSSLDLNDKTQIYVSPQQDFSDLMKSWKNERCSPELLPYPHQLMKRLLNRISMQSQLIENISMGFLDMQNASNANPPMPNESKLPLLCMETELERLKFVIRSYIRCRLSKIDKFSLYLRQLNEDENSLISLTDLLSKDEIKYHDTHSLIWLKLVNDSILKYMPEELQAINDTEGSVNMIDEPDWNKFVFIHVNGPPDGKWNEDPLLQENEFGKPCYTVTIPDLKEEVELTIGSIYVMRYEVIRDLLRDDKVALI
B7: Psf1 (protein, UniProt Q12488 1-208)
chain: MYGDLGNKLVLEAKRTKQLYARSNQDVNLPMYHEDIIRNILKEVSNLRKNTEYLKEQQQLGMLDDKVAKCQYFVTLLCMERNKRCLLAYQRLRTDILDSMAWNNNGLDLMSSITFSQQDTNNLSHQEQEYLKEYCDLITDLKSGDLVDIDLSGSLVPPSDVFIDVRVLKDAGEIQTEYGVFNLIKDSQFFVRQSDVERLIQQGYLQKI
B8: Dpb3, P27344 1-201 (protein)
chain: MSNLVKEKAPVFPISKVKKIAKCDPEYVITSNVAISATAFAAELFVQNLVEESLVLAQLNSKGKTSLRLSLNSIEECVEKRDNFRFLEDAIKQLKKNSALDKKRELNMQPGRSDQEVVIEEPELHEDDGVEEEEEEDEVSEEEEPVHNEELLDDSKDQQNDKSTRSVASLLSRFQYKSALDVGEHSDSSDIEVDHTKSTDP

Target: T1, Mrc1-YFP (S. cerevisiae)
Assay: affinity purification with mass spectrometry
Details: not given

binding, binds:
B1
B2
B3
B4
B5
B6
B7

Target: T2, Mrc1-YFP (S. cerevisiae), P25588
Assay: affinity purification with mass spectrometry
Details: remark: other sources report otherwise

binding, binds:
B8

Source: paper doi:10.1101/2021.09.16.460581
